Measured values from PubChem BioAssay AID2417 (National Center for Advancing Translational Sciences (NCATS), 2010).
Out of some 140,000 compounds screened, about 4,300 (3.1%) were called active. Inconclusive results, whose numbers are uncertain, are shown with a selection of clear calls.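 Rule for the calls: active = readout at or below -70, meaning at least 70% loss of cells showing the perinucleolar compartment, a nuclear body marking cancer cells; inconclusive = readout between -30 and a set limit; inactive = the rest.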

Experiment: High Content Assay for Compounds that inhibit the Assembly of the Perinucleolar Compartment;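 note: plate controls were DMSO wells for no effect and camptothecin positive control wells for full effect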
Conditions: PC3M PTB-GFP, PNC prevalence imaging, 16 h; at 10 µM; active compounds read low
Method in brief: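 Read-out is percentage of cells bearing a perinucleolar compartment, from automated 20x imaging of fixed, Hoechst-stained PC3M PTB-GFP cells. Cells were seeded 4 h, then exposed 16 h to compound (23 nl of library stock) in duplicate plates.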
For `Cc1cnn(C(=O)c2ccccc2Br)c1`, the activity change (PNC), negative = inhibition was inactive: 22.8%.
For `CCCN(CCC)C(=O)NC1CC(=O)N(c2ccc(OC)cc2)C1` (stereo unspecified), the activity change (PNC), negative = inhibition was inconclusive: -32.3%.
With `O=C(NCCc1ccc(Cl)cc1)C1CCCN(S(=O)(=O)c2cnc[nH]2)C1` (stereo unspecified) the activity change (PNC), negative = inhibition was inconclusive: -37%.
For `C=CCNC(=S)NNC(=O)C(CCCC)CC(C)O` (stereo unspecified), the activity change (PNC), negative = inhibition was inconclusive: -58.2%.
In the case of `CCCCc1nc(NCc2ccccc2)c(C#N)c2c1CCCC2`, the activity change (PNC), negative = inhibition was inactive: 225%.
In the case of `Cc1c2cnn(-c3ccccc3)c(=O)c2c(C)n1CCCC(=O)N1CCN(C)CC1`, the activity change (PNC), negative = inhibition was inconclusive: -59.9%.
With `Cc1ccn2c(-c3n[nH]c(=S)n3C)c(C)nc2c1` the activity change (PNC), negative = inhibition was inconclusive: -53.5%.
In the case of `O=C(CSc1nnc(Cn2c(=O)sc3ccccc32)n1-c1ccccc1)N1CCCCCC1`, the activity change (PNC), negative = inhibition was inconclusive: -32%.
With `O=C(c1cc2c(s1)-c1ccccc1OC2)N1CCN(c2ccccc2)CC1` the activity change (PNC), negative = inhibition was inactive: -15.6%.
For `Cc1ccc(-n2nc(C)c(NC(=O)CCl)c2C)cc1C`, the activity change (PNC), negative = inhibition was inactive: 46.5%.
With `O=C(c1ccccc1/S(=N/S(=O)(=O)c1ccccc1)N1CCOCC1)N1CCOCC1` (stereo unspecified) the activity change (PNC), negative = inhibition was inconclusive: -41.8%.
For `CC(C)Cc1cc(C(=O)Nc2c(F)cc(F)cc2Br)no1`, the activity change (PNC), negative = inhibition was inconclusive: -55.6%.
For `C(=N\n1cnnc1)/c1ccc(OCc2ccccc2)cc1`, the activity change (PNC), negative = inhibition was inactive: 25.2%.
With `CCCC1(C(=O)OC)NC(c2ccco2)C2C(=O)N(c3ccc(C)cc3)C(=O)C21` (stereo unspecified) the activity change (PNC), negative = inhibition was inconclusive: -53.4%.
With `COc1cc(C(=O)Nc2nnc(C(C)(C)C)s2)c([N+](=O)[O-])cc1OC` the activity change (PNC), negative = inhibition was inactive: -3.22%.
For `Cc1cccc(NC(=S)N/N=C/c2ccc(Cl)c([N+](=O)[O-])c2)c1`, the activity change (PNC), negative = inhibition was inconclusive: -36.2%.
For `CC(Nc1cccc2ccccc12)C(=O)N/N=C/c1ccc([N+](=O)[O-])cc1` (stereo unspecified), the activity change (PNC), negative = inhibition was inactive: -22.1%.
With `COc1cccc(-c2ccc(=O)n(CC(=O)Nc3cc4c(cc3NC(C)=O)OCCO4)n2)c1` the activity change (PNC), negative = inhibition was inactive: -9.35%.
In the case of `Cc1ccc2c(c1)-c1c(cnn1CC(=O)NC(C)CCc1ccco1)CO2` (stereo unspecified), the activity change (PNC), negative = inhibition was inconclusive: -38.7%.
With `CN(C(=O)COC(=O)c1cc(NS(=O)(=O)c2cc([N+](=O)[O-])ccc2Cl)ccc1O)C1CCCCC1` the activity change (PNC), negative = inhibition was active: -95.5%.
For `Clc1ccc2noc(-c3ccccc3)c2c1`, the activity change (PNC), negative = inhibition was inconclusive: -60.6%.
For `CC(C)[C@H](NC(=O)c1ccc(Cl)c([N+](=O)[O-])c1)C(=O)NCc1ccc(F)cc1`, the activity change (PNC), negative = inhibition was inconclusive: -73.9%.
In the case of `CC(C)(C)NC(=O)Cn1c(-c2nonc2N)nc2ccccc21`, the activity change (PNC), negative = inhibition was inactive: -0.718%.
With `O=C(NCn1ccc(=O)[nH]c1=S)c1ccccc1` the activity change (PNC), negative = inhibition was inconclusive: -45.3%.
With `Cc1ccc2oc3c(c(=O)c2c1)C(c1cccc(O)c1)N(c1ccccn1)C3=O` (stereo unspecified) the activity change (PNC), negative = inhibition was inconclusive: -38.5%.
In the case of `O=S1(=O)N=C(N2CCCc3ccccc32)c2ccccc21`, the activity change (PNC), negative = inhibition was inconclusive: -41%.
In the case of `O=C(Nc1ccc(Cl)cc1)N1CCN(c2ccccc2)CC1`, the activity change (PNC), negative = inhibition was inconclusive: -46.9%.
For `O=C(Nc1cccnc1)c1sc(Nc2ccccc2)nc1-c1ccccc1`, the activity change (PNC), negative = inhibition was inactive: 38%.
In the case of `COc1ccc(CCN2C(=O)CC(NNC(=O)c3ccccc3Br)C2=O)cc1` (stereo unspecified), the activity change (PNC), negative = inhibition was inconclusive: -53.9%.
In the case of `COCCNC(=O)C1CCC(Cn2c(=S)[nH]c3ccccc3c2=O)CC1` (stereo unspecified), the activity change (PNC), negative = inhibition was inactive: -13.9%.
In the case of `O=C(CN1CCN(C2CCCCC2)CC1)NCCC1=CCCCC1`, the activity change (PNC), negative = inhibition was inactive: -0.516%.
For `O=C(c1cccs1)N1CCN(Cc2ccc3c(c2)OCO3)CC1`, the activity change (PNC), negative = inhibition was inconclusive: -58.4%.
With `Cc1ccc(-c2noc(-c3ccccc3C(=O)N3CCN(C)CC3)n2)cc1` the activity change (PNC), negative = inhibition was inconclusive: -55.9%.
With `Cc1ccnc(N2CCN(C(=O)CSc3nc4ccccc4nc3N3CCCCC3)CC2)c1` the activity change (PNC), negative = inhibition was inconclusive: -40.8%.
In the case of `CCOC(=O)c1c(NC(=O)c2cccs2)sc(CC)c1-c1cccs1`, the activity change (PNC), negative = inhibition was inconclusive: -45.7%.
In the case of `CCSc1nc(CC)c2c(c1C#N)CCCC2`, the activity change (PNC), negative = inhibition was inactive: 30.5%.
In the case of `CN(C)CCCNC(=O)c1ccc(Cl)c(S(=O)(=O)N(C)c2ccccc2)c1`, the activity change (PNC), negative = inhibition was active: -108%.
In the case of `CCC(C)(C)n1nnnc1C(c1cccnc1)N1CCCc2ccccc21` (stereo unspecified), the activity change (PNC), negative = inhibition was inconclusive: -78.7%.
For `COC(=O)C1=C(CN2CCc3ccccc32)NC(=O)NC1c1cc(C)ccc1C` (stereo unspecified), the activity change (PNC), negative = inhibition was inconclusive: -47.2%.
For `c1cncc(-c2nc3ccccc3o2)c1`, the activity change (PNC), negative = inhibition was inconclusive: -59.9%.
For `c1ccc2c(c1)CSc1sccc1C2=C1CCNCC1`, the activity change (PNC), negative = inhibition was inconclusive: -42%.
In the case of `Cc1cc(-n2c(C)cc(C(=O)CN3C(=O)NC4(CCCCC4)C3=O)c2C)no1`, the activity change (PNC), negative = inhibition was inconclusive: -45.3%.
In the case of `COc1ccc(CCNC(=O)c2ccc(CNS(=O)(=O)c3cc(C)ccc3C)cc2)cc1OC`, the activity change (PNC), negative = inhibition was inconclusive: -30.7%.
With `CCN1CCN(P2(=O)C=C(c3ccccc3)OC(c3ccccc3)=C2)CC1` the activity change (PNC), negative = inhibition was inactive: -28.6%.
In the case of `CN1C(=O)C(O)(CC(=O)c2ccc3c(c2)OCO3)c2ccccc21` (stereo unspecified), the activity change (PNC), negative = inhibition was inactive: -17.6%.
With `CCC(C)(C)n1nnnc1C(c1cc(OC)c(OC)c(OC)c1)N1CCN(c2ccccc2)CC1` (stereo unspecified) the activity change (PNC), negative = inhibition was inconclusive: -54.5%.
For `COc1ccc(OCc2nnc(SCC(N)=O)n2-c2ccccc2OC)cc1`, the activity change (PNC), negative = inhibition was inconclusive: -69.2%.
With `O=C(NCCNc1ccc([N+](=O)[O-])cc1)c1cccc2c(Br)cccc12` the activity change (PNC), negative = inhibition was active: -86.3%.
For `COc1ccc(C(=O)N2CCCc3ccccc32)cc1`, the activity change (PNC), negative = inhibition was inconclusive: -49%.
In the case of `Cn1c(=O)[nH]c(=O)c2c1nc(N1CCNCC1)n2Cc1cccc2ccccc12`, the activity change (PNC), negative = inhibition was inconclusive: -32.5%.
With `CCN(CC)c1ccc2cc(C(=O)Nc3ccc(-n4cnnn4)c(OC)c3)c(=O)oc2c1` the activity change (PNC), negative = inhibition was inactive: 25.2%.
In the case of `Cc1ccc(NC(=O)CCS(=O)(=O)c2ccc(Br)cc2)nc1`, the activity change (PNC), negative = inhibition was inconclusive: -31.5%.
With `CCCC(=O)Nc1ccc(Br)c(Cl)c1` the activity change (PNC), negative = inhibition was inconclusive: -34.5%.
With `CCCOC(=O)c1ccc(Oc2cn[nH]c2-c2ccc(OCC)cc2O)cc1` the activity change (PNC), negative = inhibition was active: -117%.
For `N#CC1=C(N)OC2=C(C(=O)CCC2)[C@]12C(=O)N(CC(N)=O)c1ccccc12`, the activity change (PNC), negative = inhibition was inconclusive: -37.9%.
With `Cc1cccc(-n2c(CNC(=O)c3ccc(S(=O)(=O)N4CCCC4)cc3)n[nH]c2=S)c1` the activity change (PNC), negative = inhibition was inconclusive: -35.2%.
